Experimental data: PubChem BioAssay AID720505 (Drosophila RNAi Screening Center, 2013)
Test: 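Fly regulators or components of the CRAC channel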 (primary screen). Cell system: Drosophila S2R+ cells. Knock-down reagent: long dsRNA against Drosophila genes. Conditions: thapsigargin (2 µM) in calcium-free buffer to empty internal stores, then 2 mM calcium added back. Measurement: 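Stores emptied by 2 µM thapsigargin without calcium, then 2 mM calcium re-added; fluo-4 fluorescence followed by FLIPR in 384-well plates, per-well averaged endpoint, raw; two screen passes, some wells retested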. Direction: calcium signal and retest calcium signal: higher = more calcium entry after store depletion. Call rule: 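About 1500 genes called as lowering calcium entry, by varying amounts, judged against per-plate control wells with STIM1 as positive and Rho1 as negative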. Calls: active = called as lowering calcium entry; inactive = not called.
In all, the deposit lists about 20,000 reagents; shown is a random part of those that have a named target and a result. Over the whole deposit, about 2,100 (10%) are marked active. 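Raw plate signals without normalisation; calls rest on control-based scores that were not deposited; replicate 2 separates called from uncalled poorly.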 Reagents against one gene are numbered here. A plus sign joins genes that one reagent is predicted to hit. Not given: the amount of reagent, the time to read-out.

no.	Target gene	reagent no.	calcium signal, replicate 1	calcium signal, replicate 2	retest calcium signal, replicate 1	retest calcium signal, replicate 2	Outcome
1	CG12895 (GeneID 36103)	1	85	158			inactive
2	Gli (GeneID 34927)	1	102	156			inactive
3	Khc-73 (GeneID 36718)	1	175	125			inactive
4	CG5355 (GeneID 34421)	1	83.8	112			inactive
5	Spt-I (GeneID 36448)	1	99.7	124			inactive
6	Mob4 (GeneID 35576)	1	170	126			inactive
7	Sulf1 (GeneID 53437)	1	139	148			inactive
8	Fen1 (GeneID 36887)	1	96.9	102			inactive
9	CG8142 (GeneID 32763)	1	169	169			inactive
10	CG6567 + CG4565	1	156	81.5			inactive
11	CG31523 (GeneID 326148)	1					inactive
12	CG31523 (GeneID 326148)	2	69.3	49.7	55	59.1	active
13	CG44085 (GeneID 34732)	1	56.4	88.3			active
14	CG44085 (GeneID 34732)	2	108	113			inactive
15	CG44085 (GeneID 34732)	3	115	186			inactive
16	CG9184 (GeneID 38152)	1	122	152	113	75.9	inactive
17	CG9184 (GeneID 38152)	2	110	247			inactive
18	CG18746 (GeneID 59142)	1	148	217			inactive
19	Sqor (GeneID 38514)	1	65.7	79.6			active
20	CG3420 (GeneID 35585)	1	119	211			inactive
21	TwdlY (GeneID 318093)	1	75.7	96.4	104	79.4	inactive
22	CG3918 (GeneID 31585)	1	71.7	112			active
23	CG3918 (GeneID 31585)	2	102	152			inactive
24	Blm (GeneID 41366)	1	123	85.6			inactive
25	Spt5 (GeneID 53442)	1	93.2	116			active
26	TfIIEalpha (GeneID 39313)	1	90.1	82.8			inactive
27	CG13215 (GeneID 36182)	1	90.1	99.9			inactive
28	CG11975 (GeneID 41074)	1	108	171			inactive
29	CG9550 (GeneID 33913)	1	86.2	118			inactive
30	CG4596 (GeneID 41312)	1	164	81.8			inactive
31	Ugt303B3 (GeneID 42774)	1	249	178			inactive
32	CG30485 (GeneID 246644)	1	104	200			inactive
33	dah (GeneID 32459)	1	121	104			inactive
34	CG1304 (GeneID 33074)	1	187	117			inactive
35	tbrd-2 (GeneID 37207)	1	89.8	83.7			inactive
36	gek (GeneID 37858)	1	171	118			inactive
37	Txl (GeneID 38646)	1	82.5	63.5			inactive
38	CG13082 (GeneID 35244)	1	161	103			inactive
39	RpL28 + snoRNA:Or-CD12	1	52.7	83.2			inactive
40	CG10953 (GeneID 36941)	1	238	165			inactive
41	CG12479 (GeneID 50344)	1	87.6	138			inactive
42	gw (GeneID 43808)	1	139	118			inactive
43	gw (GeneID 43808)	2	143	218			inactive
44	gcl (GeneID 35864)	1	189	206			inactive
45	CG31465 (GeneID 42577)	1	124	170			inactive
46	lncRNA:CR40053 (GeneID 14462918)	1	113	11655			inactive
47	fliI (GeneID 33110)	1	132	183			inactive
48	PH4alphaEFB (GeneID 43620)	1	132	145			inactive
49	PH4alphaEFB (GeneID 43620)	2	151	163			inactive
50	CG9624 (GeneID 41730)	1	94.7	75.2			inactive
51	alpha-Spec (GeneID 38231)	1	158	110			inactive
52	amos (GeneID 35110)	1	148	103			inactive
53	meru (GeneID 39727)	1					active
54	meru (GeneID 39727)	2	102	145			inactive
55	meru (GeneID 39727)	3	99.8	136			inactive
56	CG10433 (GeneID 37458)	1	190	106			inactive
57	CG11905 (GeneID 39895)	1	93.6	138			inactive
58	kipf (GeneID 40937)	1	108	143	6193	131	inactive
59	kipf (GeneID 40937)	2	54.4	72.8			active
60	APP-BP1 (GeneID 39244)	1	118	123			inactive
61	CG4953 (GeneID 34373)	1	101	104			inactive
62	CG17593 (GeneID 33573)	1	153	86.4			inactive
63	CG5565 (GeneID 33323)	1	192	142			inactive
64	WRNexo (GeneID 42208)	1	195	308			inactive
65	spz4 (GeneID 34572)	1	186	162			inactive
66	CG31800 (GeneID 318947)	1	112	86.1			inactive
67	CG31751 (GeneID 35118)	1	62.4	123			inactive
68	CG31751 (GeneID 35118)	2	129	74.6			inactive
69	Ada3 (GeneID 32787)	1	87.2	157			inactive
70	Ada3 (GeneID 32787)	2	106	139			inactive
71	Nepl16 (GeneID 43014)	1	260	184			inactive
72	Wnt5 (GeneID 32838)	1	73.8	110			inactive
73	CG31437 (GeneID 318735)	1	5772	151			inactive
74	PGRP-LE (GeneID 32534)	1	195	133			inactive
75	conv (GeneID 36588)	1	115	79.6			inactive
76	run (GeneID 33059)	1	235	142			inactive
77	run (GeneID 33059)	2	158	136			inactive
78	CG6830 (GeneID 41408)	1	151	108			inactive
79	VGlut (GeneID 33427)	1	200	153	7162	168	inactive
80	VGlut (GeneID 33427)	2	151	68.2			inactive
81	Sr-CII (GeneID 44219)	1	113	154			inactive
82	CG18636 (GeneID 2768923)	1	82.8	114			inactive
83	CG10920 (GeneID 31688)	1	59.5	235			active
